Experimental data from publication PMC7244035.
These are yes or no findings as the source states them, for the method shown. Binding seen in cells or lysates may run through a third protein. Binding calls can cover weak binding; strength is not graded here. Where a sequence is shown, tags or fusion partners need not be part of it.

Key:
[1] = target: T1, FLAG-tagged Amer1-FL (full-length Amer1), in 293T cells (UniProt Q5JTC6); test: co-IP; FLAG-tagged Amer1 constructs and eGFP-tagged KIF23 transiently transfected in 293T cells; Co-IP buffer, antibody overnight at 4°C, protein A/G-agarose, Western blot
T1 sequence: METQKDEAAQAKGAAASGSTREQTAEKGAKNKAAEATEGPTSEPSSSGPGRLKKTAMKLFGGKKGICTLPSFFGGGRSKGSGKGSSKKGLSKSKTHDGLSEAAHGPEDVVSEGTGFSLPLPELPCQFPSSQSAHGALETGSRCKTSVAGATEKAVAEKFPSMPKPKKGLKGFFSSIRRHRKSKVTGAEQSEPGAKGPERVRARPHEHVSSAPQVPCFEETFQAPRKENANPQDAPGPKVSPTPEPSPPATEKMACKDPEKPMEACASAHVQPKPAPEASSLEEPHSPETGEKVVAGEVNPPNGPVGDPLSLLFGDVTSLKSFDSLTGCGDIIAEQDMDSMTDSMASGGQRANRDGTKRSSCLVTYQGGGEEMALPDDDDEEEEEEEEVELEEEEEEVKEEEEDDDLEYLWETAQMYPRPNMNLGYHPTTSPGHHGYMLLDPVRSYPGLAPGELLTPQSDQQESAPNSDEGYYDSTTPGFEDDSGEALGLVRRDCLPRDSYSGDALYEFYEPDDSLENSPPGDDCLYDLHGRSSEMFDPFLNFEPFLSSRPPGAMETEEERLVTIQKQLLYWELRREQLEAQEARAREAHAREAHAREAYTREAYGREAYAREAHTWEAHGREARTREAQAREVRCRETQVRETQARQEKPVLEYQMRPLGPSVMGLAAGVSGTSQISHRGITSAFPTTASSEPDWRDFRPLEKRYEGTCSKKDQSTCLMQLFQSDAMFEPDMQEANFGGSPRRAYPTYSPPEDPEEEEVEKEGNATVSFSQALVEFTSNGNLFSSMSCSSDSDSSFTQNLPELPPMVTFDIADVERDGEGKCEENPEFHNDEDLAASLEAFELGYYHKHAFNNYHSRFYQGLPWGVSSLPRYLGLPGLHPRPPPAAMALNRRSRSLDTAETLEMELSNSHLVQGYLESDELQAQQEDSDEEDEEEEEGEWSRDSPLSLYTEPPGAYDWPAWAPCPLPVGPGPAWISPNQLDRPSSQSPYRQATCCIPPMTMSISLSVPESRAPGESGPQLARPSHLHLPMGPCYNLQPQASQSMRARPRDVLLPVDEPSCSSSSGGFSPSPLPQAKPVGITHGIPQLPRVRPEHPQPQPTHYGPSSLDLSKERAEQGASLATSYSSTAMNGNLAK

[2] = target: T2, GST-KIF23 (human) (UniProt Q02241); test: pull-down; Pierce GST Protein Interaction Pull-Down Kit; GST-tagged bait from E. coli immobilised on the spin column, prey protein added, Western blot for KIF23 and Amer1; only the target purified
T2 sequence: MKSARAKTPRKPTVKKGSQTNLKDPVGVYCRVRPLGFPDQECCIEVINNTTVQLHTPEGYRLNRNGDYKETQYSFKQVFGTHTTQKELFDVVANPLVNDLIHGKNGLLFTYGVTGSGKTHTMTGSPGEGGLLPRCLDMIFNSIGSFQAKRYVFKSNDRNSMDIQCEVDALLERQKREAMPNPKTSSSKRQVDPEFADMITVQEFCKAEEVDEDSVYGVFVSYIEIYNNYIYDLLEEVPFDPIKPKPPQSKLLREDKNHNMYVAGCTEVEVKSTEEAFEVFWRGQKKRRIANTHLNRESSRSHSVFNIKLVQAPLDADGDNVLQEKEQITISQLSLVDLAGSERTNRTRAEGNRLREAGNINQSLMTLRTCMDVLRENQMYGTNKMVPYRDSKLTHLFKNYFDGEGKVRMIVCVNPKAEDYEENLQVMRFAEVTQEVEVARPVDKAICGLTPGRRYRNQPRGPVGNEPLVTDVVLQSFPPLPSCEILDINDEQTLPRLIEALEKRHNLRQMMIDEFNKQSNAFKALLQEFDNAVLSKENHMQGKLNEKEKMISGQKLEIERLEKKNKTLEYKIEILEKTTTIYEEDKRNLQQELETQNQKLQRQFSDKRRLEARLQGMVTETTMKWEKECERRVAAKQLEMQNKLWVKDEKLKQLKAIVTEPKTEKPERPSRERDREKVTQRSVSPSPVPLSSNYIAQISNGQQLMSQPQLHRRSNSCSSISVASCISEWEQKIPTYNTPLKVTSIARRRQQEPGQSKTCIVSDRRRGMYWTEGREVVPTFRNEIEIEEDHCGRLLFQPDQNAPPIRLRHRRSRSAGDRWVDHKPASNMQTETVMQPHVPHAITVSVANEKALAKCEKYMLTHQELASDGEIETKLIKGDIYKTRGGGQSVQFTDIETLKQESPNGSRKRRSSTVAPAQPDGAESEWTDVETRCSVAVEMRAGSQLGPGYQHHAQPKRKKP

| binding [1] | binding [2] | Substance |
| --- | --- | --- |
| binds | – | eGFP-tagged KIF23 (pEGFP-C1-MKLP1) (human) |
| – | binds | Amer1-ΔM (lacking the N-terminal membrane localization domains, MLD) (domain or fragment) |
| – | binds | Amer1-ΔA (lacking the APC-binding domains, ABD) (domain or fragment) |
